Test results from the supplement of paper PMC10849652.
The other results are listed elsewhere or left out.

Protein sequences, listed by entry. Tags and fused reporters are not part of them. Lines headed by an entry give the natural chain unless they say otherwise; changes in a name come on top.
UniProt P53621: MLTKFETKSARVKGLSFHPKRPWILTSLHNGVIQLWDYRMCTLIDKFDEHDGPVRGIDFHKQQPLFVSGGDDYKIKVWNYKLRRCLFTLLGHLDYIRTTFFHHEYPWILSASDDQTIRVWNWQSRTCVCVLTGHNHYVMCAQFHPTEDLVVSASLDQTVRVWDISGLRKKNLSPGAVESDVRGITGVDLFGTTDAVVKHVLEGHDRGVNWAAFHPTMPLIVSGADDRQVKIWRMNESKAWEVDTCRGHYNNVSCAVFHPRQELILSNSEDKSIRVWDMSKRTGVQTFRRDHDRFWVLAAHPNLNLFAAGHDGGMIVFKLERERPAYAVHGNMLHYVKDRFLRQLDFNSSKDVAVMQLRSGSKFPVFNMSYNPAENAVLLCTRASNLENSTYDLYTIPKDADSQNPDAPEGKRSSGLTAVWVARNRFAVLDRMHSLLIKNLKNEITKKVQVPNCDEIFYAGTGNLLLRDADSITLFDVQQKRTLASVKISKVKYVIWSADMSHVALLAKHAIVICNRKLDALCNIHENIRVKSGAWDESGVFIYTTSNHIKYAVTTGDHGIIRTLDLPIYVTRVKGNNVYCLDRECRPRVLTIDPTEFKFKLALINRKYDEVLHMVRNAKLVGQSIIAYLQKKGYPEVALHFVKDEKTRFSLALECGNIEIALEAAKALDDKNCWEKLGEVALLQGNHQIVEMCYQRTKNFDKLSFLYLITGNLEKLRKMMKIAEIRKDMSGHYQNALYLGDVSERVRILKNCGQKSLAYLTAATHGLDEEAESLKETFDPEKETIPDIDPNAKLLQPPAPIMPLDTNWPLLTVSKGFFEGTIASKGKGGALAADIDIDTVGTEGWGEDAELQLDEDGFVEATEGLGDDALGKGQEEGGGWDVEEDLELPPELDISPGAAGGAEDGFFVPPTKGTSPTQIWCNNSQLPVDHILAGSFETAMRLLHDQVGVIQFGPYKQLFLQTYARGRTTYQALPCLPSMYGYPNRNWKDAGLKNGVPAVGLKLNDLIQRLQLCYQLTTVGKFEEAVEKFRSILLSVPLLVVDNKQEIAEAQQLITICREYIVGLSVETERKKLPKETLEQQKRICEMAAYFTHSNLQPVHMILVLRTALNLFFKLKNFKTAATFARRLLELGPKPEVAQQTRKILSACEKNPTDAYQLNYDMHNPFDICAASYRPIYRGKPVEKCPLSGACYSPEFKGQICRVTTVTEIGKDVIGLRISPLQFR
UniProt P14406, whole entry, looked up: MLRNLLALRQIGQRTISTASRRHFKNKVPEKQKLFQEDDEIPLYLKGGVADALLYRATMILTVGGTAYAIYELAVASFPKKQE
UniProt Q9ULM6, whole entry, looked up: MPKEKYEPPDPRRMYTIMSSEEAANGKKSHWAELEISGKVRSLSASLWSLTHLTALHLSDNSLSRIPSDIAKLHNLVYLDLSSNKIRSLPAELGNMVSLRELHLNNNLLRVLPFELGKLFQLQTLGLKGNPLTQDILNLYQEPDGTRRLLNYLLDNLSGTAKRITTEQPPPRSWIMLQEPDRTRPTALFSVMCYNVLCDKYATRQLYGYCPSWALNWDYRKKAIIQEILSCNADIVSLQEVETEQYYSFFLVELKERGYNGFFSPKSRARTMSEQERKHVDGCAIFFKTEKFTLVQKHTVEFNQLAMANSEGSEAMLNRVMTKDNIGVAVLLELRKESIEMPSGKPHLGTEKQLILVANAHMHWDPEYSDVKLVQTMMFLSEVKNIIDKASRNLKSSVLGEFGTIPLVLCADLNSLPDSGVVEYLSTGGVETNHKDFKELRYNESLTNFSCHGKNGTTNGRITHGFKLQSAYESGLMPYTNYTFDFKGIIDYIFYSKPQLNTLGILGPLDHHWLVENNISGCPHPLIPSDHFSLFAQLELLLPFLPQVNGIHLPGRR
UniProt P20674, whole entry, looked up: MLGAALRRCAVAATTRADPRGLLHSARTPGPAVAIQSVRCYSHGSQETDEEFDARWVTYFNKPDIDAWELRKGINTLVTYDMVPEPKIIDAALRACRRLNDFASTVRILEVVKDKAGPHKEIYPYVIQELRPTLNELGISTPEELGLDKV
UniProt Q9NQ92: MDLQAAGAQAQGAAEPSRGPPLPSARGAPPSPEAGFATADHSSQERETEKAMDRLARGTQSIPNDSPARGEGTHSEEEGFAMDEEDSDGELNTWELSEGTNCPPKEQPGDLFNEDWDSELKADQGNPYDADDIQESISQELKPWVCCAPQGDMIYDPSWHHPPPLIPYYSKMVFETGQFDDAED
UniProt Q99807: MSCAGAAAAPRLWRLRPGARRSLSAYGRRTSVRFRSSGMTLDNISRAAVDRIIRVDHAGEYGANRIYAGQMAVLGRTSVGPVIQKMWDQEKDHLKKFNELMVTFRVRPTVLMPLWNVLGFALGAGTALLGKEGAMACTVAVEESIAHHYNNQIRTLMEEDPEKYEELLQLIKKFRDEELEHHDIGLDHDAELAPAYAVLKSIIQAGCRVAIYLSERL
UniProt Q14019: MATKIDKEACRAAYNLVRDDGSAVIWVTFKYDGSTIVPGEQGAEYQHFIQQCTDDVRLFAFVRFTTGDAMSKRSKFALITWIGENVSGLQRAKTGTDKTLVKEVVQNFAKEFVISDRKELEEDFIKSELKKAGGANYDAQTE
UniProt Q8N668, whole entry, looked up: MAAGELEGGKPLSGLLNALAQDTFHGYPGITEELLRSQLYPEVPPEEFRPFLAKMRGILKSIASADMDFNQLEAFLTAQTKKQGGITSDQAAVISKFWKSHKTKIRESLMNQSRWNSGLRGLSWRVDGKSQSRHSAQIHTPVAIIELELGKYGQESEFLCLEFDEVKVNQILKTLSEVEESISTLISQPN
UniProt Q8N684: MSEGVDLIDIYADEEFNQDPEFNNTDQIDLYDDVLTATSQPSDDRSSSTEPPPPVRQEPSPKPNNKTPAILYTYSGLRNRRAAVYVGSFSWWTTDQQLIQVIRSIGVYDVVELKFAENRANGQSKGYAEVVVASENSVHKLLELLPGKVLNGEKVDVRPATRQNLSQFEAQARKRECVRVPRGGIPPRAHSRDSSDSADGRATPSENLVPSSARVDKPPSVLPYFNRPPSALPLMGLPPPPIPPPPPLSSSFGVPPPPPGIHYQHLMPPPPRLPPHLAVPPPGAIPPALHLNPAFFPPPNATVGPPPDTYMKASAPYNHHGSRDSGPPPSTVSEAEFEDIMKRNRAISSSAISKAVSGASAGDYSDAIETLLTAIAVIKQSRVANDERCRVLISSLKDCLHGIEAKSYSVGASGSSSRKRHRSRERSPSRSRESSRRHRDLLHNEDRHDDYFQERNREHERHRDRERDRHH
UniProt Q86VU5: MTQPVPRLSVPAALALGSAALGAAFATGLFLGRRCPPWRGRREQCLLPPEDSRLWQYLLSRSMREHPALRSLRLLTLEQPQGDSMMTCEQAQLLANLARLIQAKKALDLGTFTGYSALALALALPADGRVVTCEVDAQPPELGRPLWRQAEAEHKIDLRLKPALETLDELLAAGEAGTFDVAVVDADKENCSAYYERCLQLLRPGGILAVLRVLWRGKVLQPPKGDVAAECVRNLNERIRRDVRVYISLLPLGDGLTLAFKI
UniProt Q8N8Q8: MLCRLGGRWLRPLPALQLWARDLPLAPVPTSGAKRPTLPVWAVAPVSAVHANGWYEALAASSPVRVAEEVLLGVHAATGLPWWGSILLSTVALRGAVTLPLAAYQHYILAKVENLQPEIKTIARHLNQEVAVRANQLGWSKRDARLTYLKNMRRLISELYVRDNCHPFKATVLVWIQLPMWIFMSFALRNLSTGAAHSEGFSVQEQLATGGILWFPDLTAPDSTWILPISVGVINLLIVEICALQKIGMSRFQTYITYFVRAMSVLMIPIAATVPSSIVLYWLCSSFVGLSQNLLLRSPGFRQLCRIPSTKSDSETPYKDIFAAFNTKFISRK
UniProt Q49B96: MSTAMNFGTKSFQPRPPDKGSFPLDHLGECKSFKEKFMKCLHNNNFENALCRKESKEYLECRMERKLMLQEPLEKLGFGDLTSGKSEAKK
UniProt P61923: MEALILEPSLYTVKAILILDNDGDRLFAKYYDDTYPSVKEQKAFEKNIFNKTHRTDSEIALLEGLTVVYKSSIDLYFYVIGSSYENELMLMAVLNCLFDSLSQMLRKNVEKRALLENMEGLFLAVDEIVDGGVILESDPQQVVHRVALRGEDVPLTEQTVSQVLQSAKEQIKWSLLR
UniProt Q9Y2B0: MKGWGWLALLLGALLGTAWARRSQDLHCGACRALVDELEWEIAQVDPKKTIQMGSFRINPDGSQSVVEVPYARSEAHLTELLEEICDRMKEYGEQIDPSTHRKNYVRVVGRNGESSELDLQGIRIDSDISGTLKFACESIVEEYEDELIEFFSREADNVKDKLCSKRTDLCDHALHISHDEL
UniProt Q6PJW8: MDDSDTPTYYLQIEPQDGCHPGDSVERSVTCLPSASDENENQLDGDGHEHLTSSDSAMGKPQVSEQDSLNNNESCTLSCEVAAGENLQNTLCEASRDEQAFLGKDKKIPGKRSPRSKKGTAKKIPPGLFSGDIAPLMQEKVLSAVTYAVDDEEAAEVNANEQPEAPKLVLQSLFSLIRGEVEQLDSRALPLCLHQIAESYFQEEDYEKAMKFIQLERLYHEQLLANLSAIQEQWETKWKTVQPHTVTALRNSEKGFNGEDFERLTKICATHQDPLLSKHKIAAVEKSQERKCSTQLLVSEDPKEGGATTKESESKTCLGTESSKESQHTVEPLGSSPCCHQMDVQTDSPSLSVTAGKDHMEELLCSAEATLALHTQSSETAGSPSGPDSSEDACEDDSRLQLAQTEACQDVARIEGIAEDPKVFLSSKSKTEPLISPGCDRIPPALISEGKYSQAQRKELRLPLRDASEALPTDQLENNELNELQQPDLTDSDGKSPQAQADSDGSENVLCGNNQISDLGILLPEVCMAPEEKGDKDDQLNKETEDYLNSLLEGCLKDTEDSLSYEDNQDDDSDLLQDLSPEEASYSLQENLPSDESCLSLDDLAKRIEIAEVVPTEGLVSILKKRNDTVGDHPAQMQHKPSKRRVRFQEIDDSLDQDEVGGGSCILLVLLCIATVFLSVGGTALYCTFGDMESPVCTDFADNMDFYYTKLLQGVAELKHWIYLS
UniProt Q9GZY4: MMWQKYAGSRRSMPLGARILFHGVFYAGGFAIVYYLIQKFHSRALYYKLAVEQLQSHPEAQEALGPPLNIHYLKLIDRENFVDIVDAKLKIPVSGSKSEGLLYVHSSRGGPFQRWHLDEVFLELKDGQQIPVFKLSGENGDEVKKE
UniProt O95639, whole entry, looked up: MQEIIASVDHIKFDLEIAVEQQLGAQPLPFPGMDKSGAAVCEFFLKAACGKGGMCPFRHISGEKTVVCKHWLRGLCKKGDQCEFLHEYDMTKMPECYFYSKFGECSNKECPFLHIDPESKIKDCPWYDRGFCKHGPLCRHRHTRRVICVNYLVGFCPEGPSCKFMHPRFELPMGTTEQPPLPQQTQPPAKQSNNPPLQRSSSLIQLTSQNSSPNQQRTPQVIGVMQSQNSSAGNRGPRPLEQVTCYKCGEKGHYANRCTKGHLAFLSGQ
UniProt Q9ULV4, whole entry, looked up: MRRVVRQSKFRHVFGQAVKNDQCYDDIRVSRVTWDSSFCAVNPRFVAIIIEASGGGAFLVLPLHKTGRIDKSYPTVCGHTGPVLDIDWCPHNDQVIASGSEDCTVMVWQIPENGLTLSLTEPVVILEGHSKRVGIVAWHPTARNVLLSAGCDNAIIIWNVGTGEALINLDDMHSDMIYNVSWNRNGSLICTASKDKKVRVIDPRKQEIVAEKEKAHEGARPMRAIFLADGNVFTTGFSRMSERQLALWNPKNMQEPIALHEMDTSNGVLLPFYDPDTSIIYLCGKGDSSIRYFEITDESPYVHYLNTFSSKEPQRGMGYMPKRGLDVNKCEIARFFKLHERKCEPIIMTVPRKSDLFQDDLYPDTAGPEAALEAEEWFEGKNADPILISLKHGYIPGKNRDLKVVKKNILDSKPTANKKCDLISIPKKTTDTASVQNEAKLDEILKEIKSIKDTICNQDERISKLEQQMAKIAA
UniProt O95628: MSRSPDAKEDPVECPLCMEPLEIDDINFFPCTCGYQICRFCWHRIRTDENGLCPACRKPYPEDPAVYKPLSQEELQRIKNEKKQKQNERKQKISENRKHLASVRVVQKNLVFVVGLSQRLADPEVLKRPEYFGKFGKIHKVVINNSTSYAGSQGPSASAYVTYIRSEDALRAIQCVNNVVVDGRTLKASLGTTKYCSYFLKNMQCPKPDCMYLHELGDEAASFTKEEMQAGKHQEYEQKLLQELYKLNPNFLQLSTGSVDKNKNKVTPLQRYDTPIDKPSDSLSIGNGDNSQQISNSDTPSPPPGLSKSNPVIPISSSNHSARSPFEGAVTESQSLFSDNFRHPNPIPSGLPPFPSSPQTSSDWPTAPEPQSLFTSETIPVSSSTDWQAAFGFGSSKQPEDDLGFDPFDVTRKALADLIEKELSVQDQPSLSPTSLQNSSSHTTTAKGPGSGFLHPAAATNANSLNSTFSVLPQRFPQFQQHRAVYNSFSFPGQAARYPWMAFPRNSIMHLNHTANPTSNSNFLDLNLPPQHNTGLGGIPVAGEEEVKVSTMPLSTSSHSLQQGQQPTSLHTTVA
UniProt P12074, whole entry, looked up: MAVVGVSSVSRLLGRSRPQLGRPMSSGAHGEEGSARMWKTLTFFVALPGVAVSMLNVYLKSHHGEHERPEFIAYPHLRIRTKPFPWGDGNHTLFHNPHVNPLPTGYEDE

What follows are targets tested with CC1=CC=C(C=C1)SC2=C3C=C(SC3=CN=C2)C(=O)N (assay: log2 fold change, soluble protein after heating vs DMSO (PISA); higher = thermal stabilisation; K562 lysate, 10 uM; active = over 0.2 and 3.5 SD of the protein, either way, in both replicates (recomputed)).
Summary of the method: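 To prepare the extract, K562 pellets were dounce-homogenised in PBS pH 7.4 with 1 mM MgCl2, giving crude material at 1 mg/mL protein. This was treated with 10 μM compound for 30 min, then heated in aliquots for 3 min over 48°C-58°C before pooling and addition of NP-40 to 0.5% at 4°C. Centrifugation at 21,000xg for 90 min left soluble protein in the supernatant, which TMTpro 16plex LC-MS/MS quantified with equalised channel sums. Results are log-two fold changes in thermal stability compared with solvent controls, from duplicates.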
With CNOT10 (UniProt Q9H9A5) the log2 fold change was inactive: -0.003.
In the case of COPA isoform 2 (UniProt P53621), the log2 fold change is reported as inactive: 0.018.
In the case of COPS3 (UniProt Q9UNS2), the log2 fold change is reported as inactive: -0.004.
For COX7A2 (UniProt P14406), the log2 fold change was inactive: -0.017.
With CNOT6 (UniProt Q9ULM6) the log2 fold change was inactive: -0.019.
With CNOT7 (UniProt Q9UIV1) the log2 fold change was inactive: -0.006.
CNOT3 (UniProt O75175) was tested, and the log2 fold change was inactive: -0.01.
In the case of COX5A (UniProt P20674), the log2 fold change is reported as inactive: 0.037.
For COPRS (UniProt Q9NQ92), the log2 fold change was inactive: 0.15.
For COQ7 (UniProt Q99807), the log2 fold change was inactive: -0.035.
For COTL1 (UniProt Q14019), the log2 fold change was inactive: -0.004.
In the case of COX11 (UniProt Q9Y6N1), the log2 fold change is reported as inactive: 0.011.
In the case of CRADD (UniProt P78560), the log2 fold change is reported as inactive: 0.046.
With COMMD1 (UniProt Q8N668) the log2 fold change was inactive: -0.024.
For CNOT1 (UniProt A5YKK6), the log2 fold change was inactive: 0.
For CPSF7 isoform 3 (UniProt Q8N684), the log2 fold change was inactive: 0.017.
In the case of COMTD1 (UniProt Q86VU5), the log2 fold change is reported as inactive: 0.014.
With COX18 (UniProt Q8N8Q8) the log2 fold change was inactive: 0.001.
In the case of COX19 (UniProt Q49B96), the log2 fold change is reported as inactive: 0.015.
For COPZ1 isoform 4 (UniProt P61923), the log2 fold change was inactive: 0.117.
For CPSF1 (UniProt Q10570), the log2 fold change was inactive: 0.017.
CNPY2 (UniProt Q9Y2B0) was tested, and the log2 fold change was inactive: -0.001.
CNST (UniProt Q6PJW8) was tested, and the log2 fold change was inactive: -0.002.
In the case of COA1 (UniProt Q9GZY4), the log2 fold change is reported as inactive: 0.008.
For COPS7B (UniProt Q9H9Q2), the log2 fold change was inactive: -0.015.
For COQ3 (UniProt Q9NZJ6), the log2 fold change was inactive: -0.044.
In the case of CNTN4 (UniProt Q8IWV2), the log2 fold change is reported as inactive: -0.141.
In the case of COX4I1 (UniProt P13073), the log2 fold change is reported as inactive: 0.015.
In the case of CPPED1 (UniProt Q9BRF8), the log2 fold change is reported as inactive: -0.001.
With COPS4 (UniProt Q9BT78) the log2 fold change was inactive: 0.006.
For CPSF4 (UniProt O95639), the log2 fold change was inactive: -0.009.
With COMMD10 (UniProt Q9Y6G5) the log2 fold change was inactive: 0.021.
For CPD (UniProt O75976), the log2 fold change was inactive: -0.023.
In the case of CORO1C isoform 3 (UniProt Q9ULV4), the log2 fold change is reported as inactive: 0.005.
For CNOT4 isoform 6 (UniProt O95628), the log2 fold change was inactive: 0.012.
In the case of COMMD9 (UniProt Q9P000), the log2 fold change is reported as inactive: 0.052.
COL18A1 (UniProt P39060) was tested, and the log2 fold change was inactive: -0.076.
CPEB4 (UniProt Q17RY0) was tested, and the log2 fold change was inactive: 0.093.
COX15 (UniProt Q7KZN9) was tested, and the log2 fold change was inactive: -0.015.
In the case of COX6A1 (UniProt P12074), the log2 fold change is reported as inactive: 0.171.
